{"source": "PubChem BioAssay AID720534", "about": "(National Center for Advancing Translational Sciences (NCATS), 2013)", "note": "About 990 (62%) of roughly 1,600 compounds were called active. So high a share suggests a set chosen from earlier hits. Inconclusive means that the source gave no clear call. Such entries were picked first, then a sample of the others. The call rests on the fitted dose curve; in most records, active means well fitted inhibition curve with a large enough effect; inconclusive means small, poorly fitted or top-dose-only effect; inactive means no such curve, though single readings can be large or run the other way. Potencies of inconclusive entries are doubtful fits and often do not repeat. Potency means the concentration at half of the fitted maximal effect."}
{"experiment": "qHTS for Inhibitors of TGF-b: Confirmation of Cherry Picks; further: nearly all actives have a fitted effect of over 65% in size", "conditions": "HepG2 CAGA-GFP TGF-b reporter, GFP fluorescence, 18 h, cells stimulated with TGF-beta, 500 pg/mL; series mostly up to 46.1 µM", "method_in_brief": "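TGF-beta reporter retest in HepG2 CAGA-GFP cells: compound, then 500 pg/mL TGF-beta (final), 18 h, 37 degrees C. Per-well GFP signal normalized to unstimulated and stimulated controls; concentration-effect curves fitted.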"}
{"smiles": "COc1ccc(Cc2c(-c3cccc(Br)c3)nc3ccc(Br)cn23)c(C)c1", "Potency": "inconclusive: 29.1 µM [inhibitor, single point]"}
{"smiles": "O=C(Nc1cccc(Cl)c1)c1ccc(F)c(S(=O)(=O)NCc2cccs2)c1", "Potency": "inconclusive: 20.6 µM [inhibitor, single point]"}
{"smiles": "Cc1ccccc1Cn1ccc(NC(=O)c2cnn3c2NC(c2ccccc2)CC3C(F)(F)F)n1", "note": "(centres undefined)", "Potency": "inconclusive: 20.6 µM [inhibitor, single point]"}
{"smiles": "COc1ccccc1Cc1c(-c2ccc(F)cc2)nc2ccc(Br)cn12", "Potency": "inconclusive: 20.6 µM [inhibitor, single point]"}
{"smiles": "COc1ccc2oc(=Nc3cc(F)ccc3F)c(C(N)=O)cc2c1", "Potency": "inconclusive: 16.4 µM [inhibitor, partial curve]"}
{"smiles": "Cc1ccc(NC(=O)Cc2cc(C(=O)O)c3ccccc3n2)c(C)c1", "Potency": "inconclusive: 18.4 µM [inhibitor, single point]"}
{"smiles": "O=C(COC(=O)c1c2c(nc3ccccc13)/C(=C\\c1cccs1)CCC2)Nc1ccccc1", "Potency": "inconclusive: 10.3 µM [inhibitor, partial curve]"}
{"smiles": "Cc1ccc(-c2csc(Cc3nc(-c4cc5ccccc5oc4=O)cs3)n2)cc1", "Potency": "inconclusive: 1.84 µM [inhibitor, full curve]"}
{"smiles": "O=C(Oc1ccc(Cl)c2cccnc12)c1cccnc1", "Potency": "inactive"}
{"smiles": "Cc1noc(C)c1S(=O)(=O)Nc1ccc2c(c1)C(=O)N([C@@H](C)CO)C[C@H](C)[C@@H](CN(C)Cc1ccc(C(F)(F)F)cc1)OCCCC[C@H](C)O2", "Potency": "inconclusive: 20.6 µM [inhibitor, single point]"}
{"smiles": "C1=C(CCNc2ncnc3c2[nH]c2ccccc23)CCCC1", "Potency": "inconclusive: 23.1 µM [inhibitor, single point]"}
{"smiles": "COc1ccc(C(=O)Nc2ccc3oc(Cc4ccc(Cl)cc4)nc3c2)cc1OC", "Potency": "inconclusive: 5.17 µM [inhibitor, partial curve]"}
{"smiles": "Cc1ccc(C)c(NS(=O)(=O)c2cc(C(=O)NCCC3=CCCCC3)ccc2C)c1", "Potency": "inconclusive: 16.4 µM [inhibitor, single point]"}
{"smiles": "c1ccc(Nc2nc(-c3ccccc3)nc3ccccc23)cc1", "Potency": "inconclusive: 29.1 µM [inhibitor, single point]"}
{"smiles": "COc1ccccc1CNC(=O)C(Cc1c[nH]c2ccccc12)NC(=O)OCc1ccccc1", "note": "(centres undefined)", "Potency": "inconclusive: 16.4 µM [inhibitor, single point]"}
{"smiles": "CC(C)(C)NC(=O)C[C@H]1C[C@H](C(=O)N2CCCCC2)[C@@]2(C)c3[nH]c4ccc(Cl)cc4c3CCN2C1=O", "Potency": "inconclusive: 18.4 µM [inhibitor, single point]"}
{"smiles": "O=C(CCNc1ccc(Br)cc1)c1cccc([N+](=O)[O-])c1", "Potency": "active: 18.4 µM"}
{"smiles": "CCC(=O)Nc1c(S(=O)(=O)c2ccccc2)c2nc3ccccc3nc2n1C(C)c1ccccc1", "note": "(centres undefined)", "Potency": "inconclusive: 29.1 µM [inhibitor, single point]"}
{"smiles": "CCN(CC)C(=O)[C@H]1C[C@H](CC(=O)NC/C=C(\\C)CCC=C(C)C)C(=O)N2CCc3c([nH]c4cc(-c5ccco5)ccc34)[C@]12C", "Potency": "inconclusive: 29.1 µM [inhibitor, single point]"}
{"smiles": "CCN(C(=O)COC(=O)c1ccccc1Nc1ccccc1)c1c(N)n(Cc2ccccc2)c(=O)[nH]c1=O", "Potency": "active: 20.6 µM"}
{"smiles": "COc1ccc(CC(N)c2csc(NC(=O)Nc3ccccc3C(C)C)n2)cc1", "note": "(centres undefined)", "Potency": "inconclusive: 23.1 µM [inhibitor, single point]"}
{"smiles": "COc1ccc(C[C@@H]2CN3C(=NC[C@@H]3Cc3ccc(O)cc3)N2C[C@H](C)NC(=O)CCC2CCCCC2)cc1", "Potency": "inactive"}
{"smiles": "O=C(CN1C2CCCC1CC(NC(=O)C1CCCCC1)C2)Nc1ccccc1C(F)(F)F", "note": "(centres undefined)", "Potency": "active: 18.4 µM"}
{"smiles": "Cc1ccc(-c2nc(Nc3ccc(O)cc3)c3ccccc3n2)cc1", "Potency": "inconclusive: 29.1 µM [inhibitor, single point]"}
{"smiles": "Fc1ccc(CNc2nc(-c3ccccc3)nc3ccccc23)cc1", "Potency": "inconclusive: 29.1 µM [inhibitor, single point]"}
{"smiles": "O=S(=O)(c1ccc2ccccc2c1)N1CCN(C2Cc3ccccc3C2)CC1", "Potency": "inactive"}
{"smiles": "CCOc1ccc(C(CN2CCOCC2)C(C)=O)cc1OC", "note": "(centres undefined)", "Potency": "inconclusive: 29.1 µM [inhibitor, single point]"}
{"smiles": "O=C(Nn1c(SCc2ccc(F)cc2)nc2ccsc2c1=O)c1ccccc1", "Potency": "active: 16.4 µM"}
{"smiles": "Nc1ncnc2c1ncn2[C@@H]1O[C@H](C(=O)NCc2ccc(OC(F)(F)F)cc2)[C@@H](O)[C@H]1O", "Potency": "inconclusive: 9.2 µM [inhibitor, partial curve, poor fit]"}
{"smiles": "Cn1c(/C=C/c2ccc([N+](=O)[O-])o2)nc2ccccc2c1=O", "Potency": "inconclusive: 29.1 µM [inhibitor, single point]"}
{"smiles": "Cc1cc(C)nc(/N=C(\\N)Nc2ccc(SC(F)F)cc2)n1", "Potency": "inactive"}
{"smiles": "O=C(Nc1ccc(F)cc1F)Nc1sccc1-c1nc2ccccc2s1", "Potency": "inconclusive: 29.1 µM [inhibitor, single point]"}
{"smiles": "Cc1ccc(NC(=O)CN2CC(C)SC2=NC2CCCCC2)cc1", "note": "(centres undefined)", "Potency": "inconclusive: 23.1 µM [inhibitor, single point]"}
{"smiles": "O=c1c(Cc2ccc(Cl)cc2Cl)c(O)ccn1Cc1ccc(Cl)cc1", "Potency": "inconclusive: 25.9 µM [inhibitor, single point]"}
{"smiles": "C[C@H](NC(=O)c1[nH]cnc1C(=O)Nc1ccc(CNC(=O)OC(C)(C)C)cc1)C(=O)OC(C)(C)C", "Potency": "inconclusive: 23.1 µM [inhibitor, single point]"}
{"smiles": "Cc1ccnc(NC(=O)C2CCN(S(=O)(=O)c3c(C)c(C)cc(C)c3C)CC2)c1", "Potency": "active: 7.31 µM"}
{"smiles": "CCc1nc(N)nc(N)c1-c1ccc(N(C)Cc2ccccc2)c([N+](=O)[O-])c1", "Potency": "inconclusive: 29.1 µM [inhibitor, single point]"}
{"smiles": "COc1cc(CC(=O)Nc2nc(-c3ccc(F)c(F)c3)cs2)cc(OC)c1OC", "Potency": "active: 11.6 µM"}
{"smiles": "O=C(Nc1nnc(SCc2ccc(F)cc2)s1)c1ccccn1", "Potency": "inconclusive: 16.4 µM [inhibitor, single point]"}
